{
  "source": "PubChem BioAssay AID624297",
  "about": "(National Center for Advancing Translational Sciences (NCATS), 2012)",
  "note": "“And” between values parts separate entries of the source, which are not always exact repeats. Equal values may be shown once. Out of some 340,000 compounds screened, about 6,200 (1.8%) were called active. Inconclusive means that the source gave no clear call. Such entries were picked first, then a sample of the others. The call rests on the fitted dose curve; in most records, active means well fitted activation curve with a large enough effect; inconclusive means small, poorly fitted or top-dose-only effect; inactive means no such curve, though single readings can be large or run the other way. Potencies beside an inconclusive call are fits to weak or partial responses and may not hold up. Potency means the concentration at half of the fitted maximal effect.",
  "data": [
    {"experiment": "A quantitative high throughput screen for small molecules that induce DNA re-replication in SW480 colon adenocarcinoma cells; further: nearly all actives have a fitted effect of over 55% in size; on re-replication activation: % of control where 0% means no effect.", "settings": "Hoechst DNA content imaging, 48 h; re-replication activation: at 46.1 µM (top of the series) unless noted", "summary_of_the_method": "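Per well, 250 cells were exposed to pinned compound for 48 hr. Nuclear DNA was visualised with Hoechst (40 min, 37 C) and total object intensity recorded by fluorescence scanning.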", "values": [
      {"smiles": "Cc1ccc(/C=C/c2nc3ccccc3c(=O)[nH]2)cc1", "Potency": "inconclusive: 20.6 µM [activator, partial curve, poor fit]"},
      {"smiles": "CC(Oc1ccc(Br)cc1)C(=O)NCC(C)(C)N1CCOCC1", "note": "(stereo unspecified)", "Potency": "inconclusive: 29.1 µM [activator, single point]"},
      {"smiles": "CCC1CCc2c(sc3nc(SCC(=O)NCc4ccco4)n(-c4ccccc4)c(=O)c23)C1", "note": "(stereo unspecified)", "Potency": "inconclusive: 20.6 µM [activator, single point]"},
      {"smiles": "CCOC(=O)c1sc(NCCNc2nc(C)c(C(=O)OCC)s2)nc1C", "re-replication activation": "inactive: -1.93%"},
      {"smiles": "COc1ccc(CN2CN(C(C)C)CSC2=S)cc1", "Potency": "inconclusive: 3.26 µM [activator, full curve]"},
      {"smiles": "O=C(NCCCN1CCCC1=O)c1cc2ccccc2o1", "Potency": "inconclusive: 29.1 µM [activator, single point]"},
      {"smiles": "CC1CCCN(C(=O)CCNS(=O)(=O)c2ccc3c(c2)c(=O)n(C)c(=O)n3C)C1", "note": "(stereo unspecified)", "Potency": "inconclusive: 14.6 µM [activator, partial curve, poor fit]"},
      {"smiles": "Cc1cc(C)c(NC(=O)c2ccc(S(=O)(=O)N(C)C)cc2)c(C)n1", "Potency": "inconclusive: 25.9 µM [activator, single point]"},
      {"smiles": "O=C(CCN1CCC(c2ccccc2)C1)c1ccc2c(c1)OCCO2", "note": "(stereo unspecified)", "Potency": "inconclusive: 13.3 µM [activator, single point] and inconclusive: 20 µM [activator, single point]"},
      {"smiles": "Cc1ccc(S(=O)(=O)Nc2ccc(C(=O)Nc3ccncc3)cc2)cc1", "Potency": "active: 3.26 µM"},
      {"smiles": "CCOC(=O)c1sc(N/N=C/c2ccc(N(C)C)cc2)nc1C", "Potency": "inconclusive: 3.66 µM [activator, full curve, poor fit]"},
      {"smiles": "C=CCc1cc(Cl)ccc1OCCOCCNC(C)CC", "note": "(stereo unspecified)", "Potency": "inconclusive: 23.1 µM [activator, partial curve, poor fit]"},
      {"smiles": "COc1cccc2sc(N(CCCN(C)C)C(=O)CCS(=O)(=O)c3ccccc3)nc12", "Potency": "inconclusive: 3.66 µM [activator, partial curve]"},
      {"smiles": "Cc1nn(C(C)C(=O)NCCCN2CCCC2)c(=O)c2nn(-c3ccccc3)c(C)c12", "note": "(stereo unspecified)", "Potency": "inconclusive: 25.9 µM [activator, partial curve, poor fit]"},
      {"smiles": "COc1ccc(/C=N/Nc2nc(C)cc(-c3ccccc3)n2)cc1OC", "Potency": "inconclusive: 29.1 µM [activator, single point]"},
      {"smiles": "CCOC(=O)C1=C(c2ccccc2)NC(N)=NC1c1ccc(OCc2ccc(C(=O)OC)cc2)cc1", "note": "(stereo unspecified)", "Potency": "inconclusive: 9.2 µM [activator, partial curve]"},
      {"smiles": "COc1ccc2c(c1)CC(N1CCN(C)CC1)c1cc(OC)ccc1S2", "note": "(stereo unspecified)", "Potency": "inconclusive: 29.1 µM [activator, single point]"},
      {"smiles": "COc1cccc(/C=C2/Sc3ccc(C(=O)NCCCN4CCCC4)cc3NC2=O)c1", "Potency": "inconclusive: 9.2 µM [activator, single point]"},
      {"smiles": "Cc1ccc(C(=O)NCC(=O)NCC(c2cccs2)N(C)C)cc1C", "note": "(stereo unspecified)", "re-replication activation": "inactive: -2.75%"},
      {"smiles": "C1CCCCCC(=NNc2nn[nH]n2)CCCCC1", "re-replication activation": "inactive: 8.41%"},
      {"smiles": "Cc1[nH]nc2c1-c1nc3ccccc3nc1C(C)(C)C2", "Potency": "inconclusive: 29.1 µM [activator, single point]"},
      {"smiles": "CCc1nnc(NC(=O)CCC(=O)NC2CCCc3ccccc32)s1", "note": "(stereo unspecified)", "re-replication activation": "inactive: -12.7%"},
      {"smiles": "COc1ccc(CNC(=O)CC2C[C@H](C(=O)N3CCOCC3)[C@@]3(C)c4[nH]c5ccccc5c4CCN3C2=O)cc1OC", "note": "(stereo partly specified)", "Potency": "inconclusive: 0.146 µM [activator, full curve, poor fit]"},
      {"smiles": "O=C(Nc1ccccc1F)c1ccc2snnc2c1", "re-replication activation": "inactive: 17.6%"},
      {"smiles": "CC(C)=NOC(=O)c1c(C)noc1-c1snnc1C", "Potency": "inconclusive: 6.51 µM [activator, single point]"},
      {"smiles": "Cc1ccccc1OCC(=O)Nc1ccccc1N1CCC(C)CC1", "Potency": "inconclusive: 25.9 µM [activator, partial curve, poor fit]"},
      {"smiles": "COc1ccc(C)c2sc(N(CCCN(C)C)C(=O)c3ccc4c(c3)OCCO4)nc12", "Potency": "inconclusive: 16.4 µM [activator, single point]"},
      {"smiles": "COc1ccc(Cc2nnc(NC(=O)Nc3ccccc3OC)s2)cc1", "re-replication activation": "inactive: 21.5%"},
      {"smiles": "O=C(/C=C/c1cccc(Cl)c1)c1ccc([N+](=O)[O-])o1", "Potency": "active: 1.46 µM"},
      {"smiles": "CC(=O)Nc1ccccc1C(=O)C(=O)Nc1cccc(C(=O)N2CC(C)CC(C)C2)c1", "note": "(stereo unspecified)", "Potency": "inconclusive: 29.1 µM [activator, single point]"},
      {"smiles": "CCCCOc1ccc(C(=O)N2CCNC(=O)C2CC(=O)OC(C)C)cc1", "note": "(stereo unspecified)", "re-replication activation": "inactive: -61.2%"},
      {"smiles": "COC(=O)/C=C/C(=O)Nc1ccc(O)c(Cl)c1", "Potency": "inconclusive: 0.206 µM [activator, full curve, poor fit]"},
      {"smiles": "COc1cc(-c2cc(-c3ccc(N)cc3)[nH]c(=O)c2C#N)cc(OC)c1OC", "Potency": "inconclusive: 23.1 µM [activator, single point]"},
      {"smiles": "CCN(C(=O)COC(=O)C12CC3CC(CC(NC(C)=O)(C3)C1)C2)C1CCCCC1", "re-replication activation": "inactive: -7.64%"},
      {"smiles": "N#C/C=C1\\Sc2ccccc2C(=O)N1CC(=O)N1CCN(S(=O)(=O)c2ccccc2)CC1", "Potency": "inconclusive: 23.1 µM [activator, partial curve, poor fit]"},
      {"smiles": "C=CCNc1oc(-c2ccc(-c3ccccc3)cc2)nc1C#N", "Potency": "inconclusive: 6.51 µM [activator, single point]"},
      {"smiles": "CCOc1ncccc1C(=O)NNC(=O)c1ccc(NS(=O)(=O)c2cccs2)cc1", "re-replication activation": "inactive: -6.03%"},
      {"smiles": "COc1ccc(NC(=O)c2c3c(nc4ccccc24)CCC3)cc1S(=O)(=O)N1CCOCC1", "re-replication activation": "inactive: -46.6%"},
      {"smiles": "CCn1nc(C)cc1C(=O)Sc1cccc(Br)c1", "re-replication activation": "inactive: -13.9%"},
      {"smiles": "Nc1ccc2c(=O)[nH][nH]c(=O)c2c1", "re-replication activation": "inactive: 0.551%"},
      {"smiles": "CC(=O)Nc1sc(C)c(C)c1C(=O)OCC(=O)NCc1ccc(Cl)cc1", "re-replication activation": "inactive: -17.6%"},
      {"smiles": "CCNc1ccc(N=Nc2c(C)n(C)n(-c3ccccc3)c2=O)cc1", "Potency": "inconclusive: 16.4 µM [activator, single point]"},
      {"smiles": "COc1ccc2c(c1)C(C)=CC(C)(C)N2S(=O)(=O)c1ccc(C)cc1", "Potency": "active: 13 µM"},
      {"smiles": "COc1cccc(NC(=O)c2ccc(-c3ccccc3[N+](=O)[O-])o2)c1", "Potency": "inconclusive: 0.206 µM [activator, full curve, poor fit]"},
      {"smiles": "COc1cc(CCC(=O)Nc2ccc(Cl)c(C(F)(F)F)c2)cc(OC)c1OC", "re-replication activation": "inactive: 1.71%"},
      {"smiles": "CCOc1ccc2ccccc2c1/C=N\\NC(=O)c1ccc([N+](=O)[O-])cc1", "Potency": "active: 23.1 µM"},
      {"smiles": "COc1cc(-c2nc(-c3cccc(C)c3)no2)cc(OC)c1OC", "Potency": "inconclusive: 29.1 µM [activator, single point]"},
      {"smiles": "CCOc1ccc(C(=O)/C=C/c2cc(OC)c(OC)c(OC)c2)cc1", "Potency": "inconclusive: 29.1 µM [activator, single point]"},
      {"smiles": "O=C(Nc1ccc2c(c1)OCCO2)C1CC(O)CN1C(=O)Nc1ccccc1", "note": "(stereo unspecified)", "Potency": "inconclusive: 12.6 µM [activator, partial curve, poor fit]"},
      {"smiles": "Cc1ccc(S(=O)(=O)N2[C@@H](c3ccc(C(C)(C)C)cc3)C(C(=O)O)=CC[C@H]2c2ccc(C(C)C)cc2)cc1", "Potency": "inconclusive: 0.58 µM [activator, full curve, poor fit]"},
      {"smiles": "C(=C\\c1ccccc1)/C=N/Nc1nc2ccccc2[nH]1", "Potency": "inconclusive: 23.1 µM [activator, single point]"},
      {"smiles": "CC1=NN(C(=O)Cn2nc([N+](=O)[O-])c(Br)c2C)C(O)(C(F)(F)F)C1", "note": "(stereo unspecified)", "re-replication activation": "inactive: 1.7%"},
      {"smiles": "COC(=O)Cc1ccc(NC(=S)NCCO)cc1", "re-replication activation": "inactive: 1.55% [at 9.22 µM]"},
      {"smiles": "CCOC(=O)C1CCCN(C(=O)CSc2nnnn2C)C1", "note": "(stereo unspecified)", "re-replication activation": "inconclusive: 37.8% [activator]"},
      {"smiles": "C=CCn1c(=S)[nH]c2scc(-c3ccco3)c2c1=O", "Potency": "inconclusive: 6.51 µM [activator, single point]"},
      {"smiles": "COc1cc2oc3ccccc3c2cc1N(CC(=O)N1CCCCC1)S(=O)(=O)c1ccc(C)cc1", "Potency": "inconclusive: 29.1 µM [activator, partial curve, poor fit]"},
      {"smiles": "c1ccc(Nc2nc(NCc3ccco3)c3ccccc3n2)cc1", "Potency": "inconclusive: 16.4 µM [activator, single point]"},
      {"smiles": "O=C(Nc1cc(S(=O)(=O)N2CCCCC2)ccc1N1CCOCC1)c1ccc(F)cc1", "Potency": "inconclusive: 29.1 µM [activator, single point]"},
      {"smiles": "COc1cc(/C=C/C(=O)c2ccc(NS(=O)(=O)c3ccc(C)cc3)cc2)cc(OC)c1O", "Potency": "inconclusive: 25.9 µM [activator, single point]"},
      {"smiles": "O=C(NC(=S)N1CCN(c2nc(-c3ccccc3)cs2)CC1)c1cccnc1", "Potency": "inconclusive: 13 µM [activator, single point]"},
      {"smiles": "CCN(CC)S(=O)(=O)c1cccc(NC(=O)CCNC(=O)NC23CC4CC(CC(C4)C2)C3)c1", "Potency": "inconclusive: 35.5 µM [activator, partial curve, poor fit]"},
      {"smiles": "CCOC(=O)/C(C#N)=C/c1cccc([N+](=O)[O-])c1", "re-replication activation": "inactive: 2%"},
      {"smiles": "COc1ccccc1NC(=O)CSc1nnc2ccc(-c3ccccn3)nn12", "Potency": "inconclusive: 2.31 µM [activator, partial curve, poor fit]"},
      {"smiles": "Cc1cc(N/N=C/c2cccc([N+](=O)[O-])c2)nc(-n2nc(C)cc2C)n1", "Potency": "active: 3.66 µM"},
      {"smiles": "CN(C)c1nc(N/N=C\\c2ccc(Cl)c([N+](=O)[O-])c2)nc(Nc2ccc(F)cc2)n1", "Potency": "inconclusive: 25.9 µM [activator, single point]"},
      {"smiles": "CC(C)CC(=O)NC(c1ccccc1Cl)c1c(O)ccc2ccccc12", "note": "(stereo unspecified)", "Potency": "inconclusive: 32.6 µM [activator, partial curve, poor fit]"}
    ]}
  ]
}
